No constants are given. Whether binding was seen depends on the method and setting. A result given as binding can be weak or reduced; the word gives no strength.
Target: GST-Ogt fused protein (M. smegmatis Ogt) (M. smegmatis) (UniProt A0R0A4)
Assay: SEC; the two purified proteins incubated in 1:1 ratio in 50 mM Tris-HCl pH 8.0, 20 mM NaCl for 2 h at 25 °C, then Superdex 200 10/300 GL; peak analysed by SDS-PAGE and LC-MS/MS; both purified

Amino acid sequences for entries named in this document (tags omitted). A change or cut given only in a name is not applied to a line headed by its entry.
UniProt A0R0A4: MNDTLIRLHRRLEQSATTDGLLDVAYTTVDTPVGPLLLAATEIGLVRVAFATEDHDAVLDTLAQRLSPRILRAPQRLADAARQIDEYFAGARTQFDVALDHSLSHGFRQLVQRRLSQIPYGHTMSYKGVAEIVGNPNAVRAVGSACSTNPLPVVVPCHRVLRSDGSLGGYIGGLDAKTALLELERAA
UniProt A0R1Z2: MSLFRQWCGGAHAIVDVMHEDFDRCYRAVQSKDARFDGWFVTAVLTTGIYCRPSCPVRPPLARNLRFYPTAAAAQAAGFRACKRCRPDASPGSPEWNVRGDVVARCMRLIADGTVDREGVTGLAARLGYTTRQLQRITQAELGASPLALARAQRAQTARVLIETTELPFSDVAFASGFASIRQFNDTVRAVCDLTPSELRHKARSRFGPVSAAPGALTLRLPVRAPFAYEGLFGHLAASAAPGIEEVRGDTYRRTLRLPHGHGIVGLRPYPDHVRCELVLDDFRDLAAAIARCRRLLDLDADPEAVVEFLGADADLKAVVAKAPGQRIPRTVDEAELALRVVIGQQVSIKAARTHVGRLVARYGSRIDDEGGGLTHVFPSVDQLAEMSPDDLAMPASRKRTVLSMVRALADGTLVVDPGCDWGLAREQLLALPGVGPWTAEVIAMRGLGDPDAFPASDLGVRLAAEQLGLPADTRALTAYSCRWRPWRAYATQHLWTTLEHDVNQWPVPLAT

- binding: binds
Substance: GST-Ada-AlkA (recombinant M. smegmatis Ada-AlkA) (from UniProt A0R1Z2)

Source: paper PMC7432924
